Assay results: patent US20230332164A1 (SYNLOGIC OPERATING, published 2023)
No constants are given. Whether binding was seen depends on the method and setting. Some entries that bind do so weakly or less than the wild type. For some of these results: Sequences can lack the tags named with a protein.

By UniProt entry, the sequences of proteins in these tests, tags left out. Residues count along the entry.
UniProt Q02242, residues 25-288: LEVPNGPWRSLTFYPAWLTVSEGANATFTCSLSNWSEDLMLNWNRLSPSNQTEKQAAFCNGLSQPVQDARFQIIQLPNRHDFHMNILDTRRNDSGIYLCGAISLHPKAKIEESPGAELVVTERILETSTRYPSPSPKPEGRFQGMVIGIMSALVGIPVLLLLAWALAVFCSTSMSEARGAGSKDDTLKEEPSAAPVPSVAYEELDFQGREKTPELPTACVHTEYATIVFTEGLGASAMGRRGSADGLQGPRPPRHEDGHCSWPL

T1: mouseCD47, plate coating (mouse) (UniProt Q61735)
T1 sequence (looked up): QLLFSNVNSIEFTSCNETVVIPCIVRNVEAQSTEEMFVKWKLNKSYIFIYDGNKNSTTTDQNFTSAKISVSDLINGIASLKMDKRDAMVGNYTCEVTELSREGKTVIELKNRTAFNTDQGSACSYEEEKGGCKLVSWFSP

T2: CD47 on mouse CT26 cells (mouse, UniProt Q61735 19-303)
T2 construct: whole, on cells; also called CD47 on CT26 cells; murine CD47 on CT26 cells
T2 sequence (looked up): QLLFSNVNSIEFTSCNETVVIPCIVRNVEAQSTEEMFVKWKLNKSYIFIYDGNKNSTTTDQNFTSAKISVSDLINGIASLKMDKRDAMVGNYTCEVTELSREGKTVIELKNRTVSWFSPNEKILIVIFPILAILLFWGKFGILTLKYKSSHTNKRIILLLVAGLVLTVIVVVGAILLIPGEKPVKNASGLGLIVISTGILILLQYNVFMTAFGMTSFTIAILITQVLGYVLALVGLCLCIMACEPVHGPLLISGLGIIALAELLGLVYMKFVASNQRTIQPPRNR


How the values were obtained:
[1] = molecular target: T1, mouseCD47, plate coating (mouse); assay: ELISA, mCD47-coated plate
[2] = molecular target: T2, CD47 on mouse CT26 cells; assay: flow cytometry on CT26 cells (FIG. 24 legend)
[3] = molecular target: T2, CD47 on mouse CT26 cells; assay: flow cytometry on CT26 cells, 10x concentrated supernatant
[4] = molecular target: PD1 on the surface of mouse EL4 cells (mouse) (UniProt Q02242); assay: flow cytometry on EL4 cells (FIG. 19 legend)
[5] = molecular target: PD1 on the surface of mouse EL4 cells (mouse) (UniProt Q02242); assay: flow cytometry on EL4 cells, 0, 2, 5 and 15 ul of extract (FIG. 20)
[6] = molecular target: PD1 on the surface of mouse EL4 cells (mouse) (UniProt Q02242); assay: flow cytometry on EL4 cells, anti-V5-FITC detection; dose-dependent staining at 0, 2, 5 and 15 uL

binding [1] | binding [2] | binding [3] | binding [4] | binding [5] | binding [6] | Binder
binds | binds | binds | – | – | – | WT mSIRPα (32-373), secreted by SYN2996 (receptor) VDYKDDDDKQLGGGKELKVTQPEKSVSVAAGDSTVLNCTLTSLLPVGPIKWYRGVGQSRLLIYSFTGEHFPRVTNVSDATKRNNMDFSIRISNVTPEDAGTYYCVKFQKGPSEPDTEIQSGGGTEVYVLAKPSPPEVSGPADRGIPDQKVNFTCKSHGFSPRNITLKWFKDGQELHHLETTVNPSGKNVSYNISSTVRVVLNSMDVHSKVICEVAHITLDRSPLRGIANLSNFIRVSPTVKVTQQSPTSMNQVNLTCRAERFYPEDLQLIWLENGNVSRNDTPKNLTKNTDGTYNYTSLFLVNSSAHREDVVFTCQVKHDQQPAITRNHTVLGLAHSSDQGSMQTFPGNNATHNWNKGELNSKLEGKPIPNPLLGLDSTDPNSSSVDHHHHHH
– | – | – | binds | binds | binds | secreted anti-PD1-scFv-V5 (FLAG-J43scFv-V5-HIS secreted from E. coli Nissle) (scFv, not shown: small tags and cut ends) scFv: MQLEVRLLESGGGLVKPEGSLKLSCVASGFTFSDYFMSWVRQAPGKGLEWVAHIYTKSYNYATYYSGSVKGRFTISRDDSRSMVYLQMNNLRTEDTATYYCTRDGSGYPSLDFWGQGTQVTVSSGGGGSGGGGSGGGGSYELTQPPSASVNVGETVKITCSGDQLPKYFADWFHQRSDQTILQVIYDDNKRPSGIPERISGSSSGTTATLTIRDVRAEDEGDYYCFSGYVDSDSKLYVFGSGTQLTVLGKGELNSKLEGKPIPNPLLGLDSTRTGHHHHHH
binds | – | – | – | – | – | anti-mCD47 scFv, secreted by SYN3161 (scFv) scFv: QVKLLQSGAALVKPGASVKMSCQASGYSFTDYWVTWVKQSHGQSLEWIGEIYPSNTVTNFNDNFKGKATLTVDKSTSTAYMELSRLTSEDSAIYYCTRIGNSGYRVGWFIYWGQGTLVTVLSGGGGSGGGGSGGGGSDTVLTQSPALAVSPGERVTISCKASESVSSHMHWYQQKPGQQPKLLIYKASNLASGVPARFSGSGSGTDFTLTIDPVEADDTATYFCQQGWNGPFTFGAGTRLELKRADAAGSGELGGSGKPIPNPLLGLDSTGSGHHHHHH
